Measurements published in paper PMC12824147.
No constants are given. Whether binding was seen depends on the method and setting. For some assays here: In cells and extracts the contact can be indirect. Some entries that bind do so weakly or less than the wild type.

Sequences of proteins named here, by UniProt entry; tags and fusion partners are left off.
UniProt P35222: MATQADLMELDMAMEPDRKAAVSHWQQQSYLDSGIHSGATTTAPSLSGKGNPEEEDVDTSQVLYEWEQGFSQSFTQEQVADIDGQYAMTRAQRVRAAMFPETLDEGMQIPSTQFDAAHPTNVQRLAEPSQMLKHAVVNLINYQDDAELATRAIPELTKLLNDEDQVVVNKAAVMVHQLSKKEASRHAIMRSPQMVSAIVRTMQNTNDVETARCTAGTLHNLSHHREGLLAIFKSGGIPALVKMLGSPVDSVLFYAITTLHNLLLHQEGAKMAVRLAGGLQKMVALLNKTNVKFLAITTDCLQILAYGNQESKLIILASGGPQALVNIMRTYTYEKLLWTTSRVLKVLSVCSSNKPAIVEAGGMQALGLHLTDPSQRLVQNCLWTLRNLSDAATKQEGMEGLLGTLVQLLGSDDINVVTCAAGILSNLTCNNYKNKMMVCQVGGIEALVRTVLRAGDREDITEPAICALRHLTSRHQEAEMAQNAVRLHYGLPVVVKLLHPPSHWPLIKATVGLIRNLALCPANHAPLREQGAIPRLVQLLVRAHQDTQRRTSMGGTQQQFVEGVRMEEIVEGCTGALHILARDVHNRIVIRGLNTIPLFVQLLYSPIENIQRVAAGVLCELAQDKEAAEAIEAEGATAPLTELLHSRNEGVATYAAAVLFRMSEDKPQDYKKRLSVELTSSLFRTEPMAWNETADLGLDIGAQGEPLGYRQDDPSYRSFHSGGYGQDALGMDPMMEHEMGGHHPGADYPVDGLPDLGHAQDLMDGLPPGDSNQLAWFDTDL

B1: FAM84A (protein, UniProt Q96KN4 1-292)
chain: MGNQLDRITHLNYSELPTGDPSGIEKDELRVGVAYFFSDDEEDLDERGQPDKFGVKAPPGCTPCPESPSRHHHHLLHQLVLNETQFSAFRGQECIFSKVSGGPQGADLSVYAVTALPALCEPGDLLELLWLQPAPEPPAPAPHWAVYVGGGQIIHLHQGEIRQDSLYEAGAANVGRVVNSWYRYRPLVAELVVQNACGHLGLKSEEICWTNSESFAAWCRFGKREFKAGGEVPAGTQPPQQQYYLKVHLGENKVHTARFHSLEDLIREKRRIDASGRLRVLQELADLVDDKE
B2: recombinant FAM84A (protein, UniProt Q96KN4 1-292)
chain: B1 chain

Legend:
[1] = target: β-catenin (human (endogenous in colorectal CSC spheres)) (UniProt P35222); experiment: co-IP; anti-β-catenin antibody (IgG as control) on lysates of colorectal CSC spheres, protein A/G magnetic beads, 5 washes with lysis buffer, western blot; for GSK-3β and Axin2 in CSC28 with or without FAM84A overexpression
[2] = target: recombinant β-catenin (UniProt P35222); experiment: cross-linking; recombinant FAM84A and β-catenin mixed, 15 min at room temperature, DSS cross-linker 1.5 h at room temperature, trypsin and Glu-C digestion, LC-MS/MS, pLink 2.3.11; both purified

| Binder | binding [1] | binding [2] |
| --- | --- | --- |
| B1 | binds |  |
| B2 |  | binds |
